# Reference: article PMC9228535, “Antistaphylococcal Activities and ADME-Related Properties of Chlorinated Arylcarbamoylnaphthalenylcarbamates” (Pharmaceuticals, 2022)
# Tested on: THP-1 cells
# Assay: In vitro cytotoxicity assay (WST-1)
# Type: cell-based, human
# Settings: IC50 THP-1 / MIC S. aureus ATCC 29213
# Procedure: Preliminary in vitro cytotoxicity screening of the investigated compounds was performed using human monocytic leukemia THP-1 cells, see Table 2. The ability to inhibit the human cancer cell viability (IC50) of the compounds was compared to camptothecin toxicity (0.16 ± 0.07 μM). […] However, these values are up to two orders of magnitude higher than their significant antistaphyloccocal concentrations. This fact is also taken into account in the calculated selectivity index (SI), Table 2, where for only three compounds the SI is <20, while for the rest of the agents SI is >20, and for some derivatives even 100 and more. Thus, based on all these observations, it can be concluded that all the tested derivatives can be considered as in vitro non-toxic compounds for the subsequent design of new therapeutic agents.
# The human THP-1 cell line (European Collection of Cell Cultures, Salisbury, UK) was cultured in RPMI 1640 medium supplemented with 10% fetal bovine serum, 2% L-glutamine, 1% penicillin, and streptomycin at 37 °C with 5% CO2. Cells were passaged at approximately 1-week intervals. All the tested compounds were prepared and dissolved as mentioned in our previous work.
row,SMILES,SI (IC50/MIC)
1,"CC(C)NC(=O)Oc1c(C(=O)Nc2cc(Cl)c(Cl)cc2Cl)ccc2ccccc12 [Compound 9, 2-[N-(2,4,5-Trichlorophenyl)carbamoyl]naphthalen-1-yl isopropyl carbamate]",184
2,"CCCCCNC(=O)Oc1c(C(=O)Nc2cc(Cl)c(Cl)cc2Cl)ccc2ccccc12 [Compound 5, 2-[N-(2,4,5-Trichlorophenyl)carbamoyl]naphthalen-1-yl pentyl carbamate]",51.3
3,"O=C(NC1CCCC1)Oc1c(C(=O)Nc2cc(Cl)c(Cl)cc2Cl)ccc2ccccc12 [Compound 10, 2-[N-(2,4,5-Trichlorophenyl)carbamoyl]naphthalen-1-yl cyclopentyl carbamate]",12.3
4,"CCCCCCCNC(=O)Oc1c(C(=O)Nc2cc(Cl)c(Cl)cc2Cl)ccc2ccccc12 [Compound 7, 2-[N-(2,4,5-Trichlorophenyl)carbamoyl]naphthalen-1-yl heptyl carbamate]",25.7
5,"O=C(NC1CCCCC1)Oc1c(C(=O)Nc2cc(Cl)c(Cl)cc2Cl)ccc2ccccc12 [Compound 11, 2-[N-(2,4,5-Trichlorophenyl)carbamoyl]naphthalen-1-yl cyclohexyl carbamate]",21.5
6,"CCNC(=O)Oc1c(C(=O)Nc2cc(Cl)c(Cl)cc2Cl)ccc2ccccc12 [Compound 2, 2-[N-(2,4,5-Trichlorophenyl)carbamoyl]naphthalen-1-yl ethyl carbamate]",156
7,"CCCCNC(=O)Oc1c(C(=O)Nc2cc(Cl)c(Cl)cc2Cl)ccc2ccccc12 [Compound 4, 2-[N-(2,4,5-Trichlorophenyl)carbamoyl]naphthalen-1-yl butyl carbamate]",99.6
8,"O=C(NC1CCCCCC1)Oc1c(C(=O)Nc2cc(Cl)c(Cl)cc2Cl)ccc2ccccc12 [Compound 12, 2-[N-(2,4,5-Trichlorophenyl)carbamoyl]naphthalen-1-yl cycloheptyl carbamate]",6.6
9,"O=C(NCCc1ccccc1)Oc1c(C(=O)Nc2cc(Cl)c(Cl)cc2Cl)ccc2ccccc12 [Compound 13, 2-[N-(2,4,5-Trichlorophenyl)carbamoyl]naphthalen-1-yl 2-phenylethyl carbamate]",44.8
10,"CCCCCCCCNC(=O)Oc1c(C(=O)Nc2cc(Cl)c(Cl)cc2Cl)ccc2ccccc12 [Compound 8, 2-[N-(2,4,5-Trichlorophenyl)carbamoyl]naphthalen-1-yl octyl carbamate]",5.5
11,"O=C(NCCCCc1ccccc1)Oc1c(C(=O)Nc2cc(Cl)c(Cl)cc2Cl)ccc2ccccc12 [Compound 14, 2-[N-(2,4,5-Trichlorophenyl)carbamoyl]naphthalen-1-yl 4-phenylbutyl carbamate]",23.5
12,"CCCNC(=O)Oc1c(C(=O)Nc2cc(Cl)c(Cl)cc2Cl)ccc2ccccc12 [Compound 3, 2-[N-(2,4,5-Trichlorophenyl)carbamoyl]naphthalen-1-yl propyl carbamate]",88.1
13,"CCCCCCNC(=O)Oc1c(C(=O)Nc2cc(Cl)c(Cl)cc2Cl)ccc2ccccc12 [Compound 6, 2-[N-(2,4,5-Trichlorophenyl)carbamoyl]naphthalen-1-yl hexyl carbamate]",25.1
